Test results published in PMC8335659.
Results are given in words; binding and its absence hold for the method and conditions named. Binding seen in cells or lysates may run through a third protein. Some results given as binding are weak or reduced against the parent protein; the word gives no strength.

Protein sequences, listed by entry. Tags and fused reporters are not part of them. Lines headed by an entry give the natural chain unless they say otherwise; changes in a name come on top. Chains listed by the source or under a name are the forms on record and can include a tag or linker.
GluA1^AADD (P23818, form named): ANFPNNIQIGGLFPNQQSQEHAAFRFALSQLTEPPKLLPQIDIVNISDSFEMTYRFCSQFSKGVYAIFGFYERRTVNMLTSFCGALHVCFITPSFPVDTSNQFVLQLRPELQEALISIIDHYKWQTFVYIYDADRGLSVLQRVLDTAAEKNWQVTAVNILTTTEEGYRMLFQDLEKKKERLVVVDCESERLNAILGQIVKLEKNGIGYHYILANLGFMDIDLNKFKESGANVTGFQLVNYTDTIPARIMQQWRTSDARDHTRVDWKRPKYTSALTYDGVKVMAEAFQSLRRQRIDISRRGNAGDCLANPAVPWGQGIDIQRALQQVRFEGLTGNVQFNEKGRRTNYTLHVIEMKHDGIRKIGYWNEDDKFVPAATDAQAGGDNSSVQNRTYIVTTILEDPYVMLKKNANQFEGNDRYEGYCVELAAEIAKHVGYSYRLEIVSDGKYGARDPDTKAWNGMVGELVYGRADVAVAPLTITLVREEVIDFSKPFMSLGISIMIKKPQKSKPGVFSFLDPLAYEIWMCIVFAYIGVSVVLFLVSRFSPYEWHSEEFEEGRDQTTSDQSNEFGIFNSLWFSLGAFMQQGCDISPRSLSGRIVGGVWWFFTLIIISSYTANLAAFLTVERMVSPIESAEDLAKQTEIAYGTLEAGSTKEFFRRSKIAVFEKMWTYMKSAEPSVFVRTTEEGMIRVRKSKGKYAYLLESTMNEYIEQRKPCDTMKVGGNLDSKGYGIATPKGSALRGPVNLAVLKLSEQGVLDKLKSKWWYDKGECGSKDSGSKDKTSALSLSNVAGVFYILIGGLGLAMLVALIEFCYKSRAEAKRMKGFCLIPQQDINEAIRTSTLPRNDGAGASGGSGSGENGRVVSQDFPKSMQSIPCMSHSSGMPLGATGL
GluA1^DDAA (P23818, form named): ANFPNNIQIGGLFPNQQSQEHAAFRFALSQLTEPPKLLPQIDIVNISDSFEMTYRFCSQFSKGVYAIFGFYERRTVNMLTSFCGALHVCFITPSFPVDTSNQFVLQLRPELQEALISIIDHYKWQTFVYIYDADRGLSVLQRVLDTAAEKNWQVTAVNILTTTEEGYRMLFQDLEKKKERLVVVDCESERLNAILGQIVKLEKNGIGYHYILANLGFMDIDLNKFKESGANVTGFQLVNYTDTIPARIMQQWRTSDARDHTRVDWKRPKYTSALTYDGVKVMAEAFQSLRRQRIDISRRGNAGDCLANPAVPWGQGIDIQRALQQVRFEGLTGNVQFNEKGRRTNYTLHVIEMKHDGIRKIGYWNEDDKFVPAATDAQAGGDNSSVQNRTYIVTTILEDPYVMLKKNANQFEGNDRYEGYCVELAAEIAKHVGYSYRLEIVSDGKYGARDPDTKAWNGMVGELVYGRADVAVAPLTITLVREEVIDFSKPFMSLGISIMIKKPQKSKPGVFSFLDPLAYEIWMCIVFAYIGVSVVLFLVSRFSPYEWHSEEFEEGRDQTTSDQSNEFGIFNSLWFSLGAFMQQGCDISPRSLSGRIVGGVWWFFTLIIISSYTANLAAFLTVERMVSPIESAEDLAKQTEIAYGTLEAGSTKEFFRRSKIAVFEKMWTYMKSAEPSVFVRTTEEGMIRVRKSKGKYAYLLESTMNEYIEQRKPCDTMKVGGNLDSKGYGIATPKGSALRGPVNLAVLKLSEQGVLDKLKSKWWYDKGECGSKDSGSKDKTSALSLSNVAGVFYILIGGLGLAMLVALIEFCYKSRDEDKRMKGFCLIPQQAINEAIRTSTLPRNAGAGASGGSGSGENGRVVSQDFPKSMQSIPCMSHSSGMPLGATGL
GluA1^AAAA (P23818, form named): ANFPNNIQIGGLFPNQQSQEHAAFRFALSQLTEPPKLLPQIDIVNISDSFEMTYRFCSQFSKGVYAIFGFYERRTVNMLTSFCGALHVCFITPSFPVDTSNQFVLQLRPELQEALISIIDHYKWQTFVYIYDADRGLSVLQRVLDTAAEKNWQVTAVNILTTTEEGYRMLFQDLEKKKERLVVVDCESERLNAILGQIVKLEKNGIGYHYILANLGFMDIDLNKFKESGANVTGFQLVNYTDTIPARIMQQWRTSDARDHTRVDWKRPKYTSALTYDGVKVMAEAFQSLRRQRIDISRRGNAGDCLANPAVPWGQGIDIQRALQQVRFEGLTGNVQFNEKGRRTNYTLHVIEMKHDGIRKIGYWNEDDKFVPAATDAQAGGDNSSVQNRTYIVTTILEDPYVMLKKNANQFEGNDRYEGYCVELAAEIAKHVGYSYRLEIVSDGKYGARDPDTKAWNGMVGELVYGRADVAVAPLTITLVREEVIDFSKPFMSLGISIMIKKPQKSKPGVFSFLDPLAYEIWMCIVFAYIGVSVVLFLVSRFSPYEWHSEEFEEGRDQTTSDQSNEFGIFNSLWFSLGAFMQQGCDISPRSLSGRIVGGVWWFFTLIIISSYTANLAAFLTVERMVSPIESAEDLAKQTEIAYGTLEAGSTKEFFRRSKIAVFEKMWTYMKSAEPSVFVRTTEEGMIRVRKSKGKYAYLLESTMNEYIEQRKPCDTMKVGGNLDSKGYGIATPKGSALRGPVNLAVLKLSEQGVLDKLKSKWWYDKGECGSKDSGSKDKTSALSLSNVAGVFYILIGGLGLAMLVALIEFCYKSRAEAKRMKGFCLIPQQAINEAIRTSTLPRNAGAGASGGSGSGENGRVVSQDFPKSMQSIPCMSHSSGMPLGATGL
GluA1^DDDD (P23818, form named): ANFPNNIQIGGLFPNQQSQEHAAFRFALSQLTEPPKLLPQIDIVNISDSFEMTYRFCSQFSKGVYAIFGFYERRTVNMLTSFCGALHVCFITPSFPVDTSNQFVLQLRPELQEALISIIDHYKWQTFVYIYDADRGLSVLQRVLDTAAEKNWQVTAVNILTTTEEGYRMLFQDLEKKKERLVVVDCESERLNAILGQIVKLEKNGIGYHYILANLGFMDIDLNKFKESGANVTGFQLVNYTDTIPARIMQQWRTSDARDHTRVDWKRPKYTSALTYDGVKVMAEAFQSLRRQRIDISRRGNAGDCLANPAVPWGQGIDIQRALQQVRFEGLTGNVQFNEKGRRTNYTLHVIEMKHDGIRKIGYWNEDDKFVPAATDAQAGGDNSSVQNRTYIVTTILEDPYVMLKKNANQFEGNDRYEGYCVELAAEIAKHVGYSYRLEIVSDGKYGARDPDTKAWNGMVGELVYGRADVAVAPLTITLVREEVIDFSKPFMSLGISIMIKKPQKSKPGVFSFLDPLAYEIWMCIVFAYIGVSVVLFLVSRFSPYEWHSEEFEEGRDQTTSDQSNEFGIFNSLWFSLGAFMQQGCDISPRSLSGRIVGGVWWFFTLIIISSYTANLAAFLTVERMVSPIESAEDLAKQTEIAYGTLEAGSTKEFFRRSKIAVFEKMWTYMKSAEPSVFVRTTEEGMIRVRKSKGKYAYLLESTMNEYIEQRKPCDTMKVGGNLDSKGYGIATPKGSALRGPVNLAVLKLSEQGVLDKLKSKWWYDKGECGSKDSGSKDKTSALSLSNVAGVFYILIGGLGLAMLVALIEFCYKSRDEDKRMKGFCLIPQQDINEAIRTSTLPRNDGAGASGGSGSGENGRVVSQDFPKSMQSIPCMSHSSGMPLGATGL

Assays:
Experiment in all cases: co-IP; lysates of HEK293 cells co-expressing STG, a GluA1 mutant and FLAG-tagged μ2 or μ3; immunoprecipitated with anti-GluA1 and protein G agarose, 4 °C; TNE buffer (50 mM NaCl, 10% NP-40, 20 mM EDTA, 0.1% SDS, 50 mM Tris HCl, pH 8.0); blots with anti-FLAG, anti-GluA1, anti-stargazin
GluA1^AADD (mouse) = GluA1^AADD (mouse) (UniProt P23818)
GluA1^DDAA (mouse) = GluA1^DDAA (mouse) (UniProt P23818)
GluA1^AAAA (mouse) = GluA1^AAAA (mouse) (UniProt P23818)
GluA1^DDDD (mouse) = GluA1^DDDD (mouse) (UniProt P23818)

Measured: binding

B1: stargazin (protein, UniProt O88602 1-323)
chain: MGLFDRGVQMLLTTVGAFAAFSLMTIAVGTDYWLYSRGVCKTKSVSENETSKKNEEVMTHSGLWRTCCLEGNFKGLCKQIDHFPEDADYEADTAEYFLRAVRASSIFPILSVILLFMGGLCIAASEFYKTRHNIILSAGIFFVSAGLSNIIGIIVYISANAGDPSKSDSKKNSYSYGWSFYFGALSFIIAEMVGVLAVHMFIDRHKQLRATARATDYLQASAITRIPSYRYRYQRRSRSSSRSTEPSHSRDASPVGVKGFNTLPSTEISMYTLSRDPLKAATTPTATYNSDRDNSFLQVHNCIQKDSKDSLHANTANRRTTPV
binds: GluA1^AADD (mouse) | GluA1^DDAA (mouse) | GluA1^AAAA (mouse) | GluA1^DDDD (mouse)
